Measurements reported in PubChem BioAssay AID1224826 (NIAID, 2016)
Test: 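Regulators of Tlr4 signalling leading to Tnf-alpha expression in macrophages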 (primary screen). System: RAW264.7 G9 macrophages from mouse bearing reporters for p65 (GFP) and the Tnf promoter (mCherry). Reagents: siRNA pool against mouse genes, 100 nM. Duration: 16 h of LPS stimulation, after 2 days of siRNA transfection. Treatment: bacterial lipopolysaccharide (Salmonella minnesota R595), 10 ng/ml. Measured: 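Nuclear mCherry signal of the Tnf promoter reporter measured by imaging after background removal, scaled to each plate median and turned into robust z-scores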. Direction: Tnf reporter robust z-score: higher = stronger Tnf promoter reporter signal after LPS; Tnf reporter intensity: higher = stronger Tnf promoter reporter signal. Call rule: 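Called active when robust z-score is at most -1.3, matching the median of the Tlr4 knock-down control, or over 3; control wells and wells with under 50 cells never active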. Meaning of the calls: active = Tnf reporter clearly lowered or raised; inactive = no clear change in Tnf reporter.
The deposit covers about 17,000 reagents; this is a random part of them. About 1,110 of them (6.6%) were called active. 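Active means lowered or raised reporter signal; replicate intensities are raw and not normalised per plate.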 Entries without a mark were called inactive. Not all columns of the deposit are shown.

| gene | Tnf reporter robust z-score | fewer than 50 cells in well | Tnf reporter intensity, replicate 1 |
| --- | --- | --- | --- |
| Pex39 (GeneID 67101) | – | fewer than 50 cells per well; well left out of calls | 105 |
| Tpcn1 (GeneID 252972) | – | fewer than 50 cells per well; well left out of calls | 58.8 |
| Or5w1b (GeneID 258348) | -0.95 | enough cells in well | 137 |
| Lysmd3 (GeneID 80289) | -1.65 (active) | enough cells in well | 83.6 |
| Rabl2 (GeneID 68708) | -0.1 | enough cells in well | 323 |
| Avil (GeneID 11567) | -1.15 | enough cells in well | 110 |
| Hif1an (GeneID 319594) | 0.09 | enough cells in well | 167 |
| Spryd7 (GeneID 66674) | 0.42 | enough cells in well | 208 |
| A730049H05Rik (GeneID 74516) | -0.85 | enough cells in well | 133 |
| Il12a (GeneID 16159) | -0.65 | enough cells in well | 207 |
| Ncf2 (GeneID 17970) | -0.97 | enough cells in well | 195 |
| Cdc50a (GeneID 69981) | – | fewer than 50 cells per well; well left out of calls | 125 |
| Tenm2 (GeneID 23964) | -1.34 (active) | enough cells in well | 134 |
| AI315068 | -1.02 | enough cells in well | 88.4 |
| Tlr2 (GeneID 24088) | -0.72 | enough cells in well | 132 |
| LOC277923 (retired record) (GeneID 277923) | 0.22 | enough cells in well | 244 |
| Ace (GeneID 11421) | – | fewer than 50 cells per well; well left out of calls | 179 |
| Or9q2 (GeneID 258736) | 3.12 (active) | enough cells in well | 333 |
| Melk (GeneID 17279) | -0.64 | enough cells in well | 139 |
| Bdh1 (GeneID 71911) | -1.32 (active) | enough cells in well | 59.4 |
| Zfp954 (GeneID 232853) | 1.13 | enough cells in well | 263 |
| Gna11 (GeneID 14672) | 1.04 | enough cells in well | 349 |
| Atf7 (GeneID 223922) | -0.2 | enough cells in well | 124 |
| Rnf227 (GeneID 80515) | -0.67 | enough cells in well | 127 |
| Ankrd48 (GeneID 76389) | – | fewer than 50 cells per well; well left out of calls | 158 |
| Cxxc5 (GeneID 67393) | 1.28 | enough cells in well | 315 |
| Fsd2 (GeneID 244091) | -0.08 | enough cells in well | 219 |
| Dyrk3 (GeneID 226419) | 0.51 | enough cells in well | 233 |
| Katnbl1 (GeneID 72425) | -0.69 | enough cells in well | 207 |
| Scaper (GeneID 244891) | 1.26 | enough cells in well | 172 |
| Slc7a1 (GeneID 11987) | 0.08 | enough cells in well | 134 |
| Smarcal1 (GeneID 54380) | -0.61 | enough cells in well | 205 |
| Igbp1 (GeneID 18518) | -0.04 | enough cells in well | 240 |
| Mypop (GeneID 232934) | – | fewer than 50 cells per well; well left out of calls | 61 |
| Gatd3a (GeneID 28295) | -0.64 | enough cells in well | 176 |
| Or51g1 (GeneID 259119) | – | fewer than 50 cells per well; well left out of calls | 12.6 |
| Pdk1 (GeneID 228026) | 0.03 | enough cells in well | 200 |
| Defb7 (GeneID 246080) | 4.14 (active) | enough cells in well | 495 |

Copied from the entries so far (4 entries):
| gene | Tnf reporter robust z-score | fewer than 50 cells in well | Tnf reporter intensity, replicate 1 |
| --- | --- | --- | --- |
| Melk (GeneID 17279) | -0.64 | enough cells in well | 139 |
| Bdh1 (GeneID 71911) | -1.32 (active) | enough cells in well | 59.4 |
| Zfp954 (GeneID 232853) | 1.13 | enough cells in well | 263 |
| Gna11 (GeneID 14672) | 1.04 | enough cells in well | 349 |

More results follow.
| gene | Tnf reporter robust z-score | fewer than 50 cells in well | Tnf reporter intensity, replicate 1 |
| --- | --- | --- | --- |
| Spata21 (GeneID 329972) | – | fewer than 50 cells per well; well left out of calls | 112 |
| E230001N04Rik (GeneID 320187) | -1.01 | enough cells in well | 116 |
| Or8b40 (GeneID 258475) | 3.03 (active) | enough cells in well | 135 |
| Pla2g2e (GeneID 26970) | -0.14 | enough cells in well | 191 |
| Or9g3 (GeneID 258561) | 0.15 | enough cells in well | 191 |
| Bcar3 (GeneID 29815) | 1.33 | enough cells in well | 211 |
| Vwa1 (GeneID 246228) | 2.07 | enough cells in well | 377 |
| Ftsj3 (GeneID 56095) | 1.42 | enough cells in well | 416 |
| Dcc (GeneID 13176) | 0.67 | enough cells in well | 288 |
| Nppc (GeneID 18159) | 0.42 | enough cells in well | 219 |
| Sec14l2 (GeneID 67815) | 0.49 | enough cells in well | 314 |
| Gzmg (GeneID 14944) | 1.05 | enough cells in well | 272 |
| Ints2 (GeneID 70422) | -0.46 | enough cells in well | 122 |
| Mydgf (GeneID 28106) | 1.5 | enough cells in well | 248 |
| Lrrc24 (GeneID 378937) | 3.18 (active) | enough cells in well | 353 |
| Cops4 (GeneID 26891) | 0.23 | enough cells in well | 173 |
| Rab32 (GeneID 67844) | -1.12 | enough cells in well | 203 |
| Dnaaf1 (GeneID 68270) | -1.17 | enough cells in well | 155 |
| Aqp9 (GeneID 64008) | 0.04 | enough cells in well | 135 |
| Spen (GeneID 56381) | -0.56 | enough cells in well | 205 |
